This is one part of the list.
Legend:
Test in all cases: log2 fold change, soluble protein after heating vs DMSO (PISA); higher = thermal stabilisation; K562 cells, 10 uM, 30 min; active = over 0.2 and 3.5 SD of the protein, either way, in both replicates (recomputed)
[1] = compound: CS(=O)(=O)c1ccc(-c2cnc(N)c(C(=O)Nc3ccccc3)n2)cc1
Method in brief: (§1)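 Soluble protein was defined as the supernatant after 21,000xg for 90 min. It came from K562 cells at 2×10^6 cells/mL given 10 μM compound for 30 min, heated in aliquots for 3 min across 48°C-58°C, pooled, and extracted in PBS with 0.5% NP-40 at 4°C, and was quantified by TMTpro 16plex LC-MS/MS with equalised channel sums. Thermal stability against control samples, from duplicates, is reported as log2 fold change.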

Amino acid sequences for entries named in this document (tags omitted). A change or cut given only in a name is not applied to a line headed by its entry.
UniProt O15116: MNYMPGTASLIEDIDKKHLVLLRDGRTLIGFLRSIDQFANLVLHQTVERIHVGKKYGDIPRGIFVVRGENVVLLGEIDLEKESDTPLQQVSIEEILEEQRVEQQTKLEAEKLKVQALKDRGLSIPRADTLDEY
UniProt P46821: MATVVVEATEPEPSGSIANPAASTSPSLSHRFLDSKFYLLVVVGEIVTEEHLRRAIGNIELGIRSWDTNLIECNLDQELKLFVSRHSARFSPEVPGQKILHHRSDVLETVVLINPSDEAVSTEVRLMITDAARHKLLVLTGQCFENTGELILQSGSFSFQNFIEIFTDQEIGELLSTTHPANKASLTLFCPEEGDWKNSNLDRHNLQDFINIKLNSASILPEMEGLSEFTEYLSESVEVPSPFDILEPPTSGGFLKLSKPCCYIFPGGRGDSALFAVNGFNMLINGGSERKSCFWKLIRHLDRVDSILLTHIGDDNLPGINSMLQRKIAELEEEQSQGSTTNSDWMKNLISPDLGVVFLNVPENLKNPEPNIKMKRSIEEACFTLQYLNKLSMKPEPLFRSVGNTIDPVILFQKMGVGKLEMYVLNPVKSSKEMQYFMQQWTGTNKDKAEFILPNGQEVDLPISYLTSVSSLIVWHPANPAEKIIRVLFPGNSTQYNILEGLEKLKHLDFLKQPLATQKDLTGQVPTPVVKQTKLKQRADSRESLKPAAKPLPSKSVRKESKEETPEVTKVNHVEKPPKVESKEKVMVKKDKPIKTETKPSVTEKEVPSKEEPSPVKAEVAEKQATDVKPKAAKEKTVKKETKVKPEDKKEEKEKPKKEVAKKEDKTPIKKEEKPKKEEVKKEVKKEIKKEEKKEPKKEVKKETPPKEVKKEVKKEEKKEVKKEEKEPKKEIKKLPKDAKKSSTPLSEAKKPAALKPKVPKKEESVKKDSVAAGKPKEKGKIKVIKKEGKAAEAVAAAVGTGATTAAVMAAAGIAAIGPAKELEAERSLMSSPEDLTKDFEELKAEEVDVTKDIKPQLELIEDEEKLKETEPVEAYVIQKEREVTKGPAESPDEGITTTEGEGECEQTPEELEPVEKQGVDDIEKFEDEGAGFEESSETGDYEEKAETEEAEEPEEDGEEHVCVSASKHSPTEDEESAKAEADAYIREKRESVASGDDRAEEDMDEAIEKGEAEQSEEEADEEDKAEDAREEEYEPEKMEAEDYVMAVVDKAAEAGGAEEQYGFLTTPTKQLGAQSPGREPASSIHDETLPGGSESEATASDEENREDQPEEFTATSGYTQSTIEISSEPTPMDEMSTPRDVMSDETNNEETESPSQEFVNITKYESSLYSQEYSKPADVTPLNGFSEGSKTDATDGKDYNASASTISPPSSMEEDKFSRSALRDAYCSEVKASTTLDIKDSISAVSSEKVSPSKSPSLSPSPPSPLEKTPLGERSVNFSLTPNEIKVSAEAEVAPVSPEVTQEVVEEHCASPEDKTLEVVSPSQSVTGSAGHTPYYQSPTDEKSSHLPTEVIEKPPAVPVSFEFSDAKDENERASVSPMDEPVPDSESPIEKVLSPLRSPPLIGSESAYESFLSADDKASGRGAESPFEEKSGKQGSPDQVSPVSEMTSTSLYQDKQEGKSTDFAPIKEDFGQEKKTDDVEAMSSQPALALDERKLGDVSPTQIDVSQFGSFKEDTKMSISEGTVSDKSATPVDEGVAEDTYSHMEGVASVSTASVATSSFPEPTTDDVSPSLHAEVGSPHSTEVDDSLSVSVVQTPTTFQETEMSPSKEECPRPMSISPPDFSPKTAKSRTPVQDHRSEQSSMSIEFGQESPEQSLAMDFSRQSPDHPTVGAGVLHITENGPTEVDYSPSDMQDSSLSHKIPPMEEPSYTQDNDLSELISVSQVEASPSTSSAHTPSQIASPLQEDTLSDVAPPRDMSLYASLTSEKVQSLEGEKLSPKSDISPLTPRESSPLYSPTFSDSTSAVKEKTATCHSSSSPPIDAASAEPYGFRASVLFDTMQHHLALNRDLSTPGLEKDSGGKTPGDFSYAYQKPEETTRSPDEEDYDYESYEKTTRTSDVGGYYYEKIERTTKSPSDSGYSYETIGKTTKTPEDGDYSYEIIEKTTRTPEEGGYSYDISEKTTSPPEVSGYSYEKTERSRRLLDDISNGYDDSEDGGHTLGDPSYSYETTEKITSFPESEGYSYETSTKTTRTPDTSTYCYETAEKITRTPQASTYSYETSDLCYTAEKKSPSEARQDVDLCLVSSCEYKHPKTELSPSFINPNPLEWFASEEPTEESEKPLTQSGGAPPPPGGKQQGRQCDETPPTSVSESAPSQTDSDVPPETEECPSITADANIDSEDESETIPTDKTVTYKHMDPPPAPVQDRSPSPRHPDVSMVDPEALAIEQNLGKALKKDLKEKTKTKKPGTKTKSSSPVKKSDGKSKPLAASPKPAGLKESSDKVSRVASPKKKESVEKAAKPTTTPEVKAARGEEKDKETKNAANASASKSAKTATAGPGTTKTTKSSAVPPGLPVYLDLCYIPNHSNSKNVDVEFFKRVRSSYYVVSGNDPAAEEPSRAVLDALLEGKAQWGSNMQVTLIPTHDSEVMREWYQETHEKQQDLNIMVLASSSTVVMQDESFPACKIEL
UniProt P28482, whole entry, looked up: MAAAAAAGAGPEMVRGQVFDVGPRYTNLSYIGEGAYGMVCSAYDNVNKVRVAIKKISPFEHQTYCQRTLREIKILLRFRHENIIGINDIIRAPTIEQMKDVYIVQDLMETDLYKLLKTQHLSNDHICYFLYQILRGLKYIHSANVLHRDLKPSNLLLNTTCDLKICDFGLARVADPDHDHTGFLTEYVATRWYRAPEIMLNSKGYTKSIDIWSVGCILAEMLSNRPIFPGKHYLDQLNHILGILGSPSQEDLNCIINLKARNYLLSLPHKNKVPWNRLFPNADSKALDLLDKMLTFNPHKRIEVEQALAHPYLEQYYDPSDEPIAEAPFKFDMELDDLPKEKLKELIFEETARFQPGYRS
UniProt Q9BQ69: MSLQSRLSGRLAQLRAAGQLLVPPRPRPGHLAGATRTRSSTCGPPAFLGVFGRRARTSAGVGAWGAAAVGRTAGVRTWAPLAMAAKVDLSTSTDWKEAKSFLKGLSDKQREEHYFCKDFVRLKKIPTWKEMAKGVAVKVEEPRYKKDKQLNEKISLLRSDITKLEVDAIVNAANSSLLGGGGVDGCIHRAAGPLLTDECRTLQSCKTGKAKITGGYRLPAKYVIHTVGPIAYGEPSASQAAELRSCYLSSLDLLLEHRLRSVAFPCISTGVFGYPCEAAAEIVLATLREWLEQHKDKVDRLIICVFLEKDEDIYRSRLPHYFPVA
UniProt Q8ND56: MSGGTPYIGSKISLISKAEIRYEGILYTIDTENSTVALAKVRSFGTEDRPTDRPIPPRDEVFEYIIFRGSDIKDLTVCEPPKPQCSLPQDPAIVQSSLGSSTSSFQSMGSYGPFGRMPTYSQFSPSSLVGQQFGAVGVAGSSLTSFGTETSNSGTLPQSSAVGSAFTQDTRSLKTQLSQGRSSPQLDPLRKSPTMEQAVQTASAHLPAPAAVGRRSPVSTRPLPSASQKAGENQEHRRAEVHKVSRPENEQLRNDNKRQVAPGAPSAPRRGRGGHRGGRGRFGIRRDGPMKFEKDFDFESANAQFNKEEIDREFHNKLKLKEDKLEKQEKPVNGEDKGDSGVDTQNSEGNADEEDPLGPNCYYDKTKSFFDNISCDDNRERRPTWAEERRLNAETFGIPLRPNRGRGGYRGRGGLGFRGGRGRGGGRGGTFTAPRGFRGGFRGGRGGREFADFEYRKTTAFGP
UniProt P62310: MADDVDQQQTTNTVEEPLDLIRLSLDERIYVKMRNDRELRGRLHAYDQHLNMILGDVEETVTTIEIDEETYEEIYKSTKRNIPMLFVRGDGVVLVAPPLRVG
UniProt Q9UNF1: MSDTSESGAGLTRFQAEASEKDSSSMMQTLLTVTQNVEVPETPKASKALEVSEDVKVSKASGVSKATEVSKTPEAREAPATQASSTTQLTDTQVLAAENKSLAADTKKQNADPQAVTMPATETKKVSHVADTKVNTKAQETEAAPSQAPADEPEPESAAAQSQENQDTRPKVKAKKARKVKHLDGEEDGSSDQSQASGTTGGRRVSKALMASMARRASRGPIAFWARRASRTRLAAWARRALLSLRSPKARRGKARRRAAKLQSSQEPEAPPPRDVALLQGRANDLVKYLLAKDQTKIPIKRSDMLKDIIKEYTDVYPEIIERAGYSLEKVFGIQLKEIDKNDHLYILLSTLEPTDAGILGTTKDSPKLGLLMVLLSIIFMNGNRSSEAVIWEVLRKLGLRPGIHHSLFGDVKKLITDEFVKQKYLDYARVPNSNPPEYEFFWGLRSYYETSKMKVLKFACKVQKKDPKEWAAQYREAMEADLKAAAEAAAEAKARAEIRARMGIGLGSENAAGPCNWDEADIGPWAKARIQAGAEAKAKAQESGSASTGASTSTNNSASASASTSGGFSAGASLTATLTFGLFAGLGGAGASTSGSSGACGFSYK
UniProt Q6NSJ5: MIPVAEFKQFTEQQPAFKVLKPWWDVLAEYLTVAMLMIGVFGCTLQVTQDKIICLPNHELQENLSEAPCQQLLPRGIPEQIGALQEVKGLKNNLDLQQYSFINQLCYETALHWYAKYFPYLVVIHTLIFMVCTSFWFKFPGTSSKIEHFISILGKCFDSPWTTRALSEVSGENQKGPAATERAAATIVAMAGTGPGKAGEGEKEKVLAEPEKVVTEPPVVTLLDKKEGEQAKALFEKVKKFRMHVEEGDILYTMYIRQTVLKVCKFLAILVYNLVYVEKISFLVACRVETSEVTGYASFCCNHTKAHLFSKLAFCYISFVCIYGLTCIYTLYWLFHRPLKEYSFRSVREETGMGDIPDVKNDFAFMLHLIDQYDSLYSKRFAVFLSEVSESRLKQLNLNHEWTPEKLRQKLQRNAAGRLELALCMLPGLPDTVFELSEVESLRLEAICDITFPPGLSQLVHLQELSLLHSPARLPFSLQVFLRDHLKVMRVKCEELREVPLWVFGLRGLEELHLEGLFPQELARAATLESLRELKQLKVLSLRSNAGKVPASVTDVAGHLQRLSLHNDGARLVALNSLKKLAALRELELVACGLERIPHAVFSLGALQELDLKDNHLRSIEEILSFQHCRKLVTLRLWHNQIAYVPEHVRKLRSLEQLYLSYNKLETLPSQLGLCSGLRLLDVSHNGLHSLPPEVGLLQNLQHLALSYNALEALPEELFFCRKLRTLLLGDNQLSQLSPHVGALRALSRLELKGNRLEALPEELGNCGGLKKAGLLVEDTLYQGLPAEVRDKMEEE
UniProt Q9Y333: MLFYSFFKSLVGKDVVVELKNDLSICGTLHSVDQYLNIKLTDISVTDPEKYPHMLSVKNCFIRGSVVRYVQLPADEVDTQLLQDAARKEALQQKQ
UniProt Q9UK45: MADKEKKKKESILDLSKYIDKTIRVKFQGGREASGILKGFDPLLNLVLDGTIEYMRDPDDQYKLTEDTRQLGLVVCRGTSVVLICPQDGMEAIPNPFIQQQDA
UniProt Q9NX47: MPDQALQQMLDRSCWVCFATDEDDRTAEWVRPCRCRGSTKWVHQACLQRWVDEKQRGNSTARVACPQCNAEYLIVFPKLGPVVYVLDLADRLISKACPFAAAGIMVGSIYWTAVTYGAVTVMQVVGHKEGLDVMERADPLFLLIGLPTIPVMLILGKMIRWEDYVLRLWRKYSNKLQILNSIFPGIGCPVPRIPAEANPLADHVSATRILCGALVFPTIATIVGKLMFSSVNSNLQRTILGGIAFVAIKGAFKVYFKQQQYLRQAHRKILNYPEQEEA
UniProt O75608: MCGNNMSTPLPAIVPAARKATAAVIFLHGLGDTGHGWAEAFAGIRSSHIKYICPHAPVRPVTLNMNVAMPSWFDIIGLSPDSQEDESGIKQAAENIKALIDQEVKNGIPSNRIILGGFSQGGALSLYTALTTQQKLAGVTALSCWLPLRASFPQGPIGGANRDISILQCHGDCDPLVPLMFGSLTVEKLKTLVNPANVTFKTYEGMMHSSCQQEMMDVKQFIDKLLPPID
UniProt Q9Y4Z0: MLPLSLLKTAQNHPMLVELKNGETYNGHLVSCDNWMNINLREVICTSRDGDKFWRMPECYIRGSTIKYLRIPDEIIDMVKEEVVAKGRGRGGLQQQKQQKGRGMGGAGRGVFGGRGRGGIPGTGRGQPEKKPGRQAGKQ

crizotinib = compound: C[C@@H](Oc1cc(-c2cnn(C3CCNCC3)c2)cnc1N)c1c(Cl)ccc(F)c1Cl [crizotinib]
Method in brief: as §1

[2] = compound: C[C@@H]1COCCN1C2=NC(=NC(=C2)C3(CC3)S(=O)(=O)C)C4=C5C=CNC5=CC=C4
Method in brief: as §1

[3] = compound: C[C@H](C1=CC=C(C=C1)C(=O)NC2=C3C=CNC3=NC=C2)N
Method in brief: as §1

duvelisib = compound: C[C@H](Nc1ncnc2nc[nH]c12)c1cc2cccc(Cl)c2c(=O)n1-c1ccccc1 [duvelisib]
Method in brief: as §1

gandotinib = compound: Cc1cc(Nc2cc(CN3CCOCC3)c3nc(C)c(Cc4ccc(Cl)cc4F)n3n2)n[nH]1 [gandotinib]
Method in brief: as §1

tozasertib = compound: Cc1cc(Nc2cc(N3CCN(C)CC3)nc(Sc3ccc(NC(=O)C4CC4)cc3)n2)n[nH]1 [tozasertib]
Method in brief: as §1

[4] = compound: Cc1cc(SCc2sc(-c3ccc(C(F)(F)F)cc3)nc2C)ccc1OCC(=O)O
Method in brief: as §1

doramapimod = compound: Cc1ccc(-n2nc(C(C)(C)C)cc2NC(=O)Nc2ccc(OCCN3CCOCC3)c3ccccc23)cc1 [doramapimod]
Method in brief: as §1

ispinesib = compound: Cc1ccc(C(=O)N(CCCN)[C@@H](c2nc3cc(Cl)ccc3c(=O)n2Cc2ccccc2)C(C)C)cc1 [ispinesib]
Method in brief: as §1

bafetinib = compound: Cc1ccc(NC(=O)c2ccc(CN3CC[C@H](N(C)C)C3)c(C(F)(F)F)c2)cc1Nc1nccc(-c2cncnc2)n1 [bafetinib]
Method in brief: as §1

[5] = compound: Cc1cccc(CC(=O)N2CCc3c2ccc(-c2cn(C)c4ncnc(N)c24)c3F)n1
Method in brief: as §1

nilotinib = compound: Cc1cn(-c2cc(NC(=O)c3ccc(C)c(Nc4nccc(-c5cccnc5)n4)c3)cc(C(F)(F)F)c2)cn1 [nilotinib]
Method in brief: as §1

[6] = compound: Cc1nc(Nc2n[nH]c3c2CN(C(=O)N[C@H](CN(C)C)c2ccccc2)C3(C)C)c2sccc2n1
Method in brief: as §1

dasatinib = compound: Cc1nc(Nc2ncc(C(=O)Nc3c(C)cccc3Cl)s2)cc(N2CCN(CCO)CC2)n1 [dasatinib]
Method in brief: as §1

[7] = compound: Cc1ncc(-c2ccnc(Nc3ccc(S(C)(=O)=O)cc3)n2)n1C(C)C
Method in brief: as §1

[8] = compound: Cn1cc(-c2ccc3c(c2)CCN3C(=O)Cc2cccc(C(F)(F)F)c2)c2c(N)ncnc21
Method in brief: as §1

[9] = compound: Cn1cc(-c2ccc3nnc(C(F)(F)c4ccc5ncccc5c4)n3n2)cn1
Method in brief: as §1

tipifarnib = compound: Cn1cncc1[C@@](N)(c1ccc(Cl)cc1)c1ccc2c(c1)c(-c1cccc(Cl)c1)cc(=O)n2C [tipifarnib]
Method in brief: as §1

mubritinib = compound: FC(F)(F)c1ccc(/C=C/c2nc(COc3ccc(CCCCn4ccnn4)cc3)co2)cc1 [mubritinib]
Method in brief: as §1

Measured: log2 fold change

LYAR (UniProt Q9NX58)
inactive: [1] -0.043 | crizotinib 0.045 | [2] -0.551 | [3] 0.609 | duvelisib -0.155 | gandotinib 0.372 | tozasertib 0.078 | [4] 0.045 | doramapimod 0.3 | ispinesib 0.357 | bafetinib 0.428 | [5] -0.059 | nilotinib 0.125 | [6] 0.213 | dasatinib 0.283 | [7] 0.161 | [8] -0.471 | [9] -0.252 | tipifarnib 0.241 | mubritinib -0.207

MAP1S (UniProt Q66K74)
inactive: [1] 0.033 | crizotinib -0.093 | [2] -0.081 | [3] -0.025 | duvelisib -0.012 | gandotinib -0.024 | tozasertib 0.018 | [4] 0.067 | doramapimod -0.011 | ispinesib -0.048 | bafetinib 0.017 | [5] 0.012 | nilotinib -0.032 | [6] 0.032 | dasatinib -0.104 | [7] 0.042 | [8] -0.006 | [9] -0.013 | tipifarnib -0.087 | mubritinib 0.021

LSM1 (UniProt O15116)
inactive: [1] 0.018 | crizotinib 0.139 | [2] 0.083 | [3] -0.06 | duvelisib 0.07 | gandotinib 0.077 | tozasertib 0.033 | [4] -0.02 | doramapimod 0.037 | ispinesib 0.098 | bafetinib -0.049 | [5] -0.008 | nilotinib 0.004 | [6] -0.063 | dasatinib 0.04 | [7] -0.008 | [8] 0.103 | [9] 0.12 | tipifarnib 0.033 | mubritinib 0.072

MAP1B (UniProt P46821)
inactive: [1] 0.024 | crizotinib 0.028 | [2] -0.067 | [3] 0.027 | duvelisib -0.022 | gandotinib 0.042 | tozasertib -0.002 | [4] -0.05 | doramapimod 0.008 | ispinesib 0.016 | bafetinib 0.037 | [5] -0.009 | nilotinib 0.025 | [6] 0.062 | dasatinib 0.079 | [7] -0.021 | [8] -0.022 | [9] -0.003 | tipifarnib 0.006 | mubritinib 0.002

MAPK1 (UniProt P28482)
inactive: [1] -0.006 | crizotinib 0.004 | [2] 0.047 | [3] -0.06 | duvelisib 0.002 | gandotinib -0.043 | tozasertib -0.008 | [4] -0.01 | doramapimod -0.018 | ispinesib 0.04 | bafetinib -0.027 | [5] -0.005 | nilotinib -0.019 | [6] 0.02 | dasatinib 0.021 | [7] -0.024 | [8] 0.019 | [9] 0.033 | tipifarnib -0.009 | mubritinib 0.04

MACROD1 (UniProt Q9BQ69)
inactive: [1] 0.049 | crizotinib 0.133 | [2] 0.222 | [3] -0.013 | duvelisib -0.005 | gandotinib -0.182 | tozasertib 0.114 | [4] 0.092 | doramapimod -0.001 | ispinesib 0.065 | bafetinib -0.086 | [5] 0.028 | nilotinib -0.046 | [6] -0.102 | dasatinib -0.014 | [7] 0.037 | [8] 0.057 | [9] -0.05 | tipifarnib -0.096 | mubritinib 0.158

LSM14A isoform 2 (UniProt Q8ND56)
inactive: [1] 0.027 | crizotinib 0.052 | [2] -0.044 | [3] -0.021 | duvelisib -0.047 | gandotinib -0.032 | tozasertib -0.054 | [4] 0.102 | doramapimod -0.019 | ispinesib -0.089 | bafetinib -0.086 | [5] -0.019 | nilotinib -0.077 | [6] 0.044 | dasatinib -0.025 | [7] 0.021 | [8] -0.026 | [9] 0.009 | tipifarnib -0.015 | mubritinib 0.056

MAN1A1 (UniProt P33908)
inactive: [1] 0.013 | crizotinib 0.089 | [2] 0.038 | [3] -0.077 | duvelisib 0.018 | gandotinib -0.009 | tozasertib 0.017 | [4] -0.06 | doramapimod 0 | ispinesib 0.099 | bafetinib -0.047 | [5] 0 | nilotinib 0.046 | [6] -0.062 | dasatinib 0.028 | [7] -0.045 | [8] 0.002 | [9] 0.092 | tipifarnib 0.039 | mubritinib 0.012

LSM3 (UniProt P62310)
inactive: [1] -0.071 | crizotinib 0.137 | [2] 0.077 | [3] -0.12 | duvelisib -0.009 | gandotinib 0.132 | tozasertib -0.002 | [4] -0.121 | doramapimod 0 | ispinesib 0.183 | bafetinib -0.012 | [5] 0 | nilotinib 0.053 | [6] -0.054 | dasatinib 0.05 | [7] -0.043 | [8] 0.02 | [9] 0.024 | tipifarnib -0.053 | mubritinib 0.024

MAGED2 (UniProt Q9UNF1)
inactive: [1] 0.049 | crizotinib -0.078 | [2] -0.02 | [3] 0.091 | duvelisib 0.005 | gandotinib -0.074 | tozasertib -0.035 | [4] -0.015 | doramapimod 0.123 | ispinesib -0.151 | bafetinib -0.005 | [5] -0.103 | nilotinib -0.075 | [6] 0.106 | dasatinib -0.02 | [7] -0.037 | [8] -0.033 | [9] -0.043 | tipifarnib 0.032 | mubritinib 0.013

LRRC8E (UniProt Q6NSJ5)
inactive: [1] 0.063 | crizotinib -0.023 | [2] 0.017 | [3] 0.104 | duvelisib 0.219 | gandotinib -0.047 | tozasertib -0.075 | [4] -0.066 | doramapimod 0.012 | ispinesib -0.053 | bafetinib 0.098 | [5] -0.168 | dasatinib -0.026 | [8] 0.107 | [9] 0.049 | tipifarnib 0.046 | mubritinib -0.008

LSM2 (UniProt Q9Y333)
inactive: [1] -0.038 | crizotinib 0.024 | [2] 0.01 | [3] -0.094 | duvelisib 0.034 | gandotinib -0.023 | tozasertib 0.005 | [4] -0.04 | doramapimod -0.017 | ispinesib 0.079 | bafetinib -0.048 | [5] 0 | nilotinib 0.018 | [6] 0.022 | dasatinib 0.056 | [7] 0.017 | [8] 0.026 | [9] 0.006 | tipifarnib -0.005 | mubritinib 0.029

3 consecutive records out of the list so far:
LSM14A isoform 2 (UniProt Q8ND56)
inactive: [1] 0.027 | crizotinib 0.052 | [2] -0.044 | [3] -0.021 | duvelisib -0.047 | gandotinib -0.032 | tozasertib -0.054 | [4] 0.102 | doramapimod -0.019 | ispinesib -0.089 | bafetinib -0.086 | [5] -0.019 | nilotinib -0.077 | [6] 0.044 | dasatinib -0.025 | [7] 0.021 | [8] -0.026 | [9] 0.009 | tipifarnib -0.015 | mubritinib 0.056

MAN1A1 (UniProt P33908)
inactive: [1] 0.013 | crizotinib 0.089 | [2] 0.038 | [3] -0.077 | duvelisib 0.018 | gandotinib -0.009 | tozasertib 0.017 | [4] -0.06 | doramapimod 0 | ispinesib 0.099 | bafetinib -0.047 | [5] 0 | nilotinib 0.046 | [6] -0.062 | dasatinib 0.028 | [7] -0.045 | [8] 0.002 | [9] 0.092 | tipifarnib 0.039 | mubritinib 0.012

LSM3 (UniProt P62310)
inactive: [1] -0.071 | crizotinib 0.137 | [2] 0.077 | [3] -0.12 | duvelisib -0.009 | gandotinib 0.132 | tozasertib -0.002 | [4] -0.121 | doramapimod 0 | ispinesib 0.183 | bafetinib -0.012 | [5] 0 | nilotinib 0.053 | [6] -0.054 | dasatinib 0.05 | [7] -0.043 | [8] 0.02 | [9] 0.024 | tipifarnib -0.053 | mubritinib 0.024

(cont.)

LSM7 (UniProt Q9UK45)
inactive: [1] 0.034 | crizotinib 0.002 | [2] 0.025 | [3] -0.019 | duvelisib 0.088 | gandotinib 0.021 | tozasertib -0.053 | [4] -0.01 | doramapimod 0.024 | ispinesib -0.004 | bafetinib 0.036 | [5] -0.05 | nilotinib -0.041 | [6] 0.025 | dasatinib 0.025 | [7] -0.031 | [8] 0.042 | [9] 0.016 | tipifarnib -0.023 | mubritinib 0.013

MARCHF5 (UniProt Q9NX47)
inactive: [1] 0.019 | crizotinib 0.006 | [2] -0.064 | [3] -0.062 | duvelisib 0 | gandotinib 0.024 | tozasertib -0.013 | [4] -0.037 | doramapimod -0.015 | ispinesib 0.03 | bafetinib -0.04 | [5] -0.028 | nilotinib 0.031 | [6] 0.032 | dasatinib 0.034 | [7] -0.017 | [8] 0.007 | [9] 0.008 | tipifarnib 0.03 | mubritinib -0.041

LYPLA1 (UniProt O75608)
inactive: [1] -0.015 | crizotinib 0.084 | [2] 0.265 | [3] -0.129 | duvelisib 0.124 | gandotinib -0.023 | tozasertib 0.028 | [4] -0.029 | doramapimod 0.023 | ispinesib 0.104 | bafetinib -0.012 | [5] -0.013 | nilotinib 0 | [6] 0.014 | dasatinib 0.058 | [7] -0.015 | [8] 0.128 | [9] 0.154 | tipifarnib -0.076 | mubritinib 0.009

LSM4 (UniProt Q9Y4Z0)
inactive: [1] -0.019 | crizotinib 0.041 | [2] -0.022 | [3] -0.032 | duvelisib 0.02 | gandotinib -0.015 | tozasertib -0.024 | [4] -0.014 | doramapimod 0.01 | ispinesib 0.026 | bafetinib 0.014 | [5] 0.031 | nilotinib 0.03 | [6] 0.004 | dasatinib 0.037 | [7] -0.005 | [8] 0.009 | [9] 0.01 | tipifarnib 0 | mubritinib 0.032

Reference: the supplement of paper PMC10849652
